Test results published in article PMC6882875.
Where a protein sequence is shown, tags need not be part of it. For part of these data: Construct, isoform or probe ends are uncertain for at least one entry.

Key:
[1] = test system: T1, MalR1 (Bifidobacterium breve UCC2003); assay: EMSA; conditions: 150 nM protein, EMSA: binding buffer stock 80 mM Tris-HCl pH 8.0, 20 mM MgCl2, 2 mM DTT, 4 mM EDTA, 400 mM KCl, 40% glycerol (final dilution not stated), poly(dI-dC) 0.05 ug/ul, recombinant protein, residues 1-338, protein details: C-terminal His10, label: 5' IRD700, probe letters rebuilt from the primers and the genome; for binding signal: counted as no binding
T1 sequence (looked up): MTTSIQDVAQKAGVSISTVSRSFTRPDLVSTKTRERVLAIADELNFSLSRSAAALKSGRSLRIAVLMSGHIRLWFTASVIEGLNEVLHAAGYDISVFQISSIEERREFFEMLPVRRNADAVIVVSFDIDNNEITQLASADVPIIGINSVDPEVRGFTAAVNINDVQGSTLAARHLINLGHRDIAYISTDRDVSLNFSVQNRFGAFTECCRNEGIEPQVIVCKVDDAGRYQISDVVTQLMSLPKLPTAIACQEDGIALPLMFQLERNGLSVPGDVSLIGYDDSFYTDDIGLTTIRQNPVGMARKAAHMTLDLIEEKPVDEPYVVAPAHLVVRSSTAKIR

[2] = test system: T2, AraQ (Bifidobacterium breve UCC2003); assay: EMSA; conditions: 150 nM protein, EMSA: binding buffer stock 80 mM Tris-HCl pH 8.0, 20 mM MgCl2, 2 mM DTT, 4 mM EDTA, 400 mM KCl, 40% glycerol (final dilution not stated), poly(dI-dC) 0.05 ug/ul, recombinant protein, protein details: C-terminal His10, label: 5' IRD700, probe letters rebuilt from the primers and the genome; for binding signal: counted as no binding
T2 sequence (looked up, limits assumed): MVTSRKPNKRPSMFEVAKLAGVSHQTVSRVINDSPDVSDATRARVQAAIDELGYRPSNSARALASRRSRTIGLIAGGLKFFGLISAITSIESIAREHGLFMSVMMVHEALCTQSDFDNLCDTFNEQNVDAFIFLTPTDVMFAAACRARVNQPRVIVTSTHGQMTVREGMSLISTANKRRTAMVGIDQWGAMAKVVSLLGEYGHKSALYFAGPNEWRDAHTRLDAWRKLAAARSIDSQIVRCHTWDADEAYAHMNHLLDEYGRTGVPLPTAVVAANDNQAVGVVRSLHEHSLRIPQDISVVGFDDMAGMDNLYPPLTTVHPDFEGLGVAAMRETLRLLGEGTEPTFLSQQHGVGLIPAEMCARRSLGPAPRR

“GCATTGCCTCAGGTAAGCCGTTTCCATGAATTCAGTGGCGGCATCGGCAAGCTGGACACCGAAGTGTCCAAGCTGTTGGTTCGCTGACCGGACGTGAGCCCCAACTTCCGTGGATTCACGCCGTCGGTCCAATACGGGAAACCGCATATCGGTTGCCGGCGATCCACAATGTGAGCGCTCACAAAAAAACGACGTTTTTGCTCAAAACGCACGCTCAGACATTGCCATGTGTACAGAGTCGGCATTACAGTAGCAACTGTTGGTAAACAATGGCCCGGTGTGCCAGAGCGCACCACGGGCACCCTACAAGGGAGAATTACATGACAGTTAAGATTGGTATCAACGGCTTCGGTCGCATTGGTC (double strand) [gap promoter]”: binds ([1]; titrated 0-250 nM in Fig. 2); binds ([2]; titrated 0-250 nM in Fig. 2).
For “CGAACCTTTCTCTTTCATCGTCGACCCGCCCGATCTCCGGTCGGCCAGAGTGCCGTTAGCAGCACCCTCACGACTATCGACATGACCTATTGTGCAACGGTTCGCGCTTTTTTGCAAACGATGGCATTATCGGCGCGCCAAAAAGTGCTACAGAAGCATGTGCAGTTGACCAATTTCCCGATAAACCAGTCGGTTTCCGCCGGCAGCAGCAATGCAAGCGTTGGCAACAATGAGAGCGTTAACATGCAAAATCCATACCTTATGCGCGGCCATTTACCCCGTTGCGCAACACGCCGAAGCCATCGTTTGCAGAAACGATGACGCACACGCCTCGTCCGCTCACGGCTCAAAACAGAACGCAGTCACTGCATTTGCGCCAAAGAAACGTCAAGCCAGCCCGCTACGGCTCAGCTCAGGCATTCC (double strand) [malE promoter]”, the binding signal [1] was 0 % bound and the binding result [2] was “binds”.
For “GCGACGATGACGAATCCGAAACTGACCACTTTTGCCCAGCCGTTGCACGATATGGCTCAGGTGATTGCCGAAATGCTGTGTTGGCGGTTGGAGCACGGGGAATGGAACACTGTGGCACAAGTATTGCCTGCGTCACTAATCAAACGTGATAGCGTCTGATGGTATTGCCCGAATCAGCGGTTGTATTTTTTGAAATCCATGCCTGAATGCTAATCCGGCATGGATTTGTTGTTTTTCGTAGGGTGTGCTATCTTAGAACTGTTTTTGGAAACGGTTCCAAAAATAAAGGGAAGTGATGAGGCTTTCCGAATCGAGCGCAGTGATGCGGAAGGAGATAAAATGAAGAGGTCAAAGGCGATGTTTTCAGCTGTGTTAGCTGTTGCTACCGTGGTGAGCCTCGCAGCTTGCGGTACTGCTAATAATAGTGGAAACGCTACCACTAAAGATGGAAAAACGATTATCAAGATTCAAACCTTTAATAATTTTGGCTATGGTAAGCCCACCAATGAGCGCCCAAGTGC (double strand) [cldE promoter]”, the binding result [1] was “binds” and the binding signal [2] was 0 % bound.
“CCGGAACTTCTCGCTATCATCATGCTTTCCTCGTCTCCGGCGAACCGTCGTCTAACGCGTCGATATCGGCGTATCGCTACAGCGCGCTCGTTATGCTCACGGGTCGTGGAGCGAGCACGCAGCTTTGCGGAATATGCCCACTTCATTAGCGAAATCGGTTTTGCACACGTTGGCTTTTGGCCTCCCCGAAGTCGACTCCAAACAACCACTTACCACTGGTCGACTTCGACGTGCATCACTTCTCTCGTGTGCACAACATCATACTGCAAAGGTTGTCATTATTTCAACCCGCATGCCCTCTAATTAAGGGGGTATGGGTTCTCTTCCCGCATAGCAACAGGGGAAATACGTTGAATATGTTGACACTATACGCCGGCGTGTCGAAAACATTTACCCCCCATACGGGGGAATCTACGTATTGCATGCATATGCATTACCATCTATTCAAAGGGGAACGGCAGAGGTCAGGACCCCGCCATCGGGAATCAACAGCGAATTGTCCCATGCTATTATGCAAACGATGTCAGTATGTACAACACACCCCATGTCGGCGAATTTCCTCACCGCCGCTTTCGACACGTCACGCAGCGCGAAGCAGATTCCCGCTGCCGAGCAATCGACGGCATTACCGCCACCGGGCATGATACCGTTGTCATAGCAATGACAATCGAAACGCACACACCGACGGCGCAGCGCAACATACACAAGAACAAGGCAACACGCATCCGCACAGCAGCAGAGGATAAAGACTATGGCAAAAGCAAGCATTCAAGCG (double strand) [malR6/Bbr_0113 intergenic region]”: binds [1].
“TGGACATCCGGTCAGGCCTTTTGCCGTCATATGGGAGCGTCAGCGTTCATTCTCCGTTTCGAGGGGCTGATTTTGCTTCTTGGGAAGTTCTATCTCCGTTTCGAGGGGCTGGTGCCCAAGTAGAAGAGGTCCAAGAATGGCGAAATGACGGTGGCAAGAAGGCGTTTGTACTTGTGTTTCGGCGGATGACCAGCCCCTTGAAACGGAGATAGACCTCCGGAAAGGTTCAAATCAGCCCCTCGAAACTTAAATATGACGATCAAAGCGCAAATGTGAACAATGCCACATATAACTTGGTGAGTCGCTGCACGATGATTTTCGGGGCTTCTCAAGAATGGCGGAATATCAACAGAAACCCCTATATCTAGGTTTGTTGTGTGATACACGCCACTACATATAGTGCATTGATTTCAAACTACACAGATGTAATATGGCCATCGTTTCACTGTTCAACAGAGATAGATGGAGGGGAGTCGCCATGACCGTCACCGTGTTCACCAAGCCGCATTGCCCGCAATGCAACGCCACCAAGCGCCAGCTCACCAAGCTTGGTGTGCCGTTCGAGAC (double strand) [nrdH promoter]” was tested, and the binding signal [1] was 0 % bound and the binding result [2] was “binds”.
“CATAACAGCCCCTTTGCCTTGCAAAACGCGAAGCGGACACAACTGGCTCCAGTGTACATGGTGATTGGGCAATTTGCACAATGACAACGATTGTATTACAAACGTTTGCAGATAGTCTATTATTATGCAGAAACGTTGGAATTTAGCTATTTTGTGAAGTGAAAGATAATTGCTCTGATGGGATGTAGCTGCATGTAGAAACGCTGTAAATGACAACGTTTGACATATGGTTGTCGAGTGTTTACCATGAAGCTTAGGCTTGATTGGCGGGATTCGCGAACGTGTGTTCTGCTTGACGGGCTGGAATTGAGTTGAACTCCGCGCTCGGCGCACGATGCAGTGCAGTGTTGCGGACTCAAGGAGGAGGAAAGTCATG (double strand) [malF/malR1 intergenic region]”: binds [1]; binds [2].
“GCCGATAGAACAGCGTATGGGTCCGTACAAGACCAAAGAAGACGCCGAACATGCGTGGGATATAGTGGTGGACCGTAACGCCAAATGGGATGAGGAAAACCGCCGCTGGGATAACTACGGCGTCAAACCGCCCGCCGGCAAATCGTCGGATACCGACTGACCATATGTGTTTTCGCCGCGATCGGCGAACATGCCGATGACGGATGACAGATAGCTACACCGCTCAACTTCACATCGAGAGTTGAGCGGTTTTGTCTAATATCGGCCGTGACAATCGGACGGCGGATGCTGGAAACCGCTGGATTGGTAGCGCTCACAGAAGAATGTGAGATAGCTCACTCCCAATTTCAGCTTTTCTCAAGACTGTGCAAACTACACTAGTGAAGCAAGGGTTCCGTGAAGATGCGAAACCTACAACCCCATTAAGGAGTGACATGACCGCAGTAGAAAATGCAGCTGTCTCCCAAGAGGAGCTCGACGCCAAG (double strand) [pflB-pflA promoter]”: binds [1]; binds [2].
“CCACGTCACGAATAGTTGCCTTCTGCCCGTTTGCCACGTCTCCTCCTGTCGCCGATCCCACCGTTCATCCATTGTAAGGCCACAACCCATATATCTCCCATGGCAGTCGATTCGGACGAAATCCGGCTTGAAAACGTCCGAATCGACACCCATCCTGCGCCATCCGTCCGAATCAACCGCACACCGGGGACAACAACAGGGGGCAACAAACAAAGCCAGACACCACCCATACAACACAAAAAGCGCCGTCCGCGTGAAGCGGGCAGCGCTTTTGTTATCTCTCGTTACGAGCCTAGTGAAAGAATCTCACTGAACCTGGGTACGAGCGATCTTGCCGTTGAAGGACTCAGCCTCATCCTTGTCCTTGGCCTCGGCGTTGTTCCAGGAGAACATAGCGCGCAGC (double strand) [cldR promoter]” was tested, and the binding signal [1] was 0 % bound and the binding signal [2] was 0 % bound.
